Measurements taken from article PMC6376064.
These are yes or no findings as the source states them, for the method shown. Binding seen in cells or lysates may run through a third protein. These calls come from enrichment with a bait or labelling near it, and not all partners need be listed. For some assays here: Where a sequence is shown, tags or fusion partners need not be part of it.

Chains of the proteins cited; added tags and fusions are not shown.
UniProt Q13043: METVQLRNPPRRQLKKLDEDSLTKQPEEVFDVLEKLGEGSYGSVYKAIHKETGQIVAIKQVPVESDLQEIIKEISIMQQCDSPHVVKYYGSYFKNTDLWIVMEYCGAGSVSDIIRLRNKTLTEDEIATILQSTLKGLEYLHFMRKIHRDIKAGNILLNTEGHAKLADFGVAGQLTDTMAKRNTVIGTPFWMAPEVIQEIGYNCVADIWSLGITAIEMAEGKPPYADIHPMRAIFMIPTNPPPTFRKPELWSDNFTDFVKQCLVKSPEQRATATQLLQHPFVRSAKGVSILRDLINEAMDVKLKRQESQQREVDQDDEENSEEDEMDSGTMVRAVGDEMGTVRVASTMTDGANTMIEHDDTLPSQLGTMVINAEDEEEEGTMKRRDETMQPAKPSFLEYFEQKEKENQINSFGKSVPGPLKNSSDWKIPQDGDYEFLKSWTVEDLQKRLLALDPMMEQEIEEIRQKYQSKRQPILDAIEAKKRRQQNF

Experiments:
[1] = molecular target: T1, Flag-tagged Mst2 (in THP1 macrophages) (UniProt Q13188); assay: affinity purification with mass spectrometry; Flag-tagged Mst1 or Mst2 immunoprecipitated from lysates of THP1 macrophages; gel segments digested with trypsin, mass spectrometry
T1 sequence: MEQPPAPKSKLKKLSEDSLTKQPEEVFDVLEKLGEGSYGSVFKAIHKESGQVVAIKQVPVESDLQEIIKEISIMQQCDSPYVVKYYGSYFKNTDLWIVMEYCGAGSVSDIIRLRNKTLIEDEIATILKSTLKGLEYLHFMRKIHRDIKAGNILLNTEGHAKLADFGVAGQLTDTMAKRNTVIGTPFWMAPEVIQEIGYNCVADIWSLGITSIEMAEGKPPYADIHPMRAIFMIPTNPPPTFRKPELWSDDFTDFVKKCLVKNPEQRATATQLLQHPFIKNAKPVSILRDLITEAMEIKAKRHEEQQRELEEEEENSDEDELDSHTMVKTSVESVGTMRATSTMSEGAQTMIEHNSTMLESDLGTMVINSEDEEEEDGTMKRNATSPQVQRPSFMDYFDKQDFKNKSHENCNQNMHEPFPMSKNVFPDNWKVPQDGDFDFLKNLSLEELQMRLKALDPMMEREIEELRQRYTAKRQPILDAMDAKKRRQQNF

Flag-tagged Mst1 = Flag-tagged Mst1 (UniProt Q13043); assay: as above

Question: For “Keap1 (kelch like ECH associated protein 1), endogenous in THP1 macrophages (from UniProt Q14145 1-624)”, which binding [1] is on record?
Answer: binds

Question: What about the binding (Flag-tagged Mst1) of the same substance?
Answer: binds
